Values from PubChem BioAssay AID1224830 (NIAID, 2016).
In all, the deposit lists about 18,000 reagents; shown is an unselected part. Over the whole deposit, about 2,900 (16%) were called active. 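Calls are made per well; low scores hint the gene aids the LPS response, high scores that it dampens it.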 Repeated entries: four replicate wells of each siRNA pool.

Aim: 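Regulators of TLR4 signalling towards TNF-alpha in macrophage-like cells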 (primary screen)
System: human THP-1 monocytic leukaemia cells, TNF dual-luciferase reporter clone, PMA-differentiated to macrophage-like cells
Knock-down reagent: siRNA pool against human genes, 50 nM
Time to read-out: LPS for 4 h, given about 3 days after siRNA transfection
Conditions: bacterial LPS (TLR4 ligand), 10 ng/ml
Read-out: 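TNF firefly reporter luminescence divided by renilla, normalised to the plate median, then turned into a robust z-score for each replicate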
Direction: TNF reporter robust z-score: higher = stronger TNF reporter response to LPS
Call rule: 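Each well counts as active if its z-score is over 2.8 or under -1.5; controls are left without a call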

The first 4 entries, to show the layout:
| target | TNF reporter robust z-score | Call |
| --- | --- | --- |
| YRDC | 0.09 | inactive |
| YRDC | -0.11 | inactive |
| YRDC | -0.17 | inactive |
| TMEM41B | 0.21 | inactive |

The listing, repeating the preview:
| target | TNF reporter robust z-score | Call |
| --- | --- | --- |
| YRDC | 0.09 | inactive |
| YRDC | -0.11 | inactive |
| YRDC | -0.17 | inactive |
| TMEM41B | 0.21 | inactive |
| TMEM41B | -0.67 | inactive |
| TMEM41B | 0.04 | inactive |
| TMEM41B | 0.99 | inactive |
| PACSIN1 | -1.37 | inactive |
| PACSIN1 | -1.35 | inactive |
| PACSIN1 | -1.51 | active |
| PACSIN1 | -1.08 | inactive |
| PIGA | -0.49 | inactive |
| PIGA | 0.88 | inactive |
| PIGA | 0 | inactive |
| PIGA | 2.66 | inactive |
| KIR3DL2 | -0.67 | inactive |
| KIR3DL2 | 0.07 | inactive |
| KIR3DL2 | -0.53 | inactive |
| KIR3DL2 | -0.44 | inactive |
| VASN | -0.67 | inactive |
| VASN | -0.91 | inactive |
| VASN | -0.26 | inactive |
| VASN | -0.76 | inactive |
| SIRPG | 0.36 | inactive |
| SIRPG | 1.59 | inactive |
| SIRPG | 1.11 | inactive |
| SIRPG | 0.76 | inactive |
| PPP1R14D | -0.72 | inactive |
| PPP1R14D | -0.71 | inactive |
| PPP1R14D | -1.16 | inactive |
| PPP1R14D | 0.54 | inactive |
| EMC1 | 0.1 | inactive |
| EMC1 | 0.15 | inactive |
| EMC1 | -0.32 | inactive |
| EMC1 | 0.64 | inactive |
| PDLIM4 | -0.05 | inactive |
| PDLIM4 | 1.63 | inactive |
| PDLIM4 | -0.19 | inactive |
| PDLIM4 | -0.76 | inactive |
| NDRG2 | 0.82 | inactive |
| NDRG2 | 1.56 | inactive |
| NDRG2 | 2.96 | active |
| NDRG2 | 0.75 | inactive |
| NEK1 | -0.76 | inactive |
| NEK1 | 0.35 | inactive |
| NEK1 | -1.33 | inactive |
| NEK1 | 0.37 | inactive |
